{"source": "PubChem BioAssay AID1224826 – NIAID, 2016", "purpose": "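Knock-downs that raise or lower Tnf reporter signal after endotoxin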 (primary screen)", "cells": "RAW264.7 G9 macrophages from mouse bearing reporters for p65 (GFP) and the Tnf promoter (mCherry)", "knock-down reagent": "siRNA pool against mouse genes, 100 nM", "duration": "16 h of LPS stimulation, after 2 days of siRNA transfection", "treatment": "bacterial lipopolysaccharide (Salmonella minnesota R595), 10 ng/ml", "detection": "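Imaged Tnf reporter mCherry in nuclei, minus background, normalised per plate to the median and expressed as robust z-scores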", "reading the numbers": "Tnf reporter robust z-score: higher = stronger Tnf promoter reporter signal after LPS", "rule for the call": "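Called active when robust z-score is at most -1.3, matching the median of the Tlr4 knock-down control, or over 3; control wells and wells with under 50 cells never active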", "calls": "active = Tnf reporter clearly lowered or raised; inactive = no clear change in Tnf reporter", "note": "In all, the deposit lists about 17,000 reagents; shown is an unselected part. About 1,110 of them (6.6%) count as active. 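Active means lowered or raised reporter signal; replicate intensities are raw and not normalised per plate.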 The numbers tell different reagents against one gene apart. Further read-outs or replicates are left out here. No sequences are given here."}
{"gene": "Zdhhc17 (zinc finger, DHHC domain containing 17)", "reagent": 1, "Tnf reporter robust z-score": -1.11, "fewer than 50 cells in well": "enough cells in well", "Outcome": "inactive"}
{"gene": "Nrde2 (nrde-2 necessary for RNA interference, domain containing)", "reagent": 1, "Tnf reporter robust z-score": 1.52, "fewer than 50 cells in well": "enough cells in well", "Outcome": "inactive"}
{"gene": "Mxi1 (MAX interactor 1, dimerization protein)", "reagent": 1, "Tnf reporter robust z-score": 0.04, "fewer than 50 cells in well": "enough cells in well", "Outcome": "inactive"}
{"gene": "Drd1 (dopamine receptor D1)", "reagent": 1, "Tnf reporter robust z-score": -0.26, "fewer than 50 cells in well": "enough cells in well", "Outcome": "inactive"}
{"gene": "Aldh1a1 (aldehyde dehydrogenase family 1, subfamily A1)", "reagent": 1, "Tnf reporter robust z-score": -0.55, "fewer than 50 cells in well": "enough cells in well", "Outcome": "inactive"}
{"gene": "Nectin4 (nectin cell adhesion molecule 4)", "reagent": 1, "Tnf reporter robust z-score": -0.56, "fewer than 50 cells in well": "enough cells in well", "Outcome": "inactive"}
{"gene": "Prl (prolactin)", "reagent": 1, "Tnf reporter robust z-score": -0.35, "fewer than 50 cells in well": "enough cells in well", "Outcome": "inactive"}
{"gene": "Atf7ip2 (activating transcription factor 7 interacting protein 2)", "reagent": 1, "Tnf reporter robust z-score": 2.05, "fewer than 50 cells in well": "enough cells in well", "Outcome": "inactive"}
{"gene": "Atf7ip2 (activating transcription factor 7 interacting protein 2)", "reagent": 2, "Tnf reporter robust z-score": -0.11, "fewer than 50 cells in well": "enough cells in well", "Outcome": "inactive"}
{"gene": "Nf1 (neurofibromin 1)", "reagent": 1, "Tnf reporter robust z-score": -0.8, "fewer than 50 cells in well": "enough cells in well", "Outcome": "inactive"}
{"gene": "Myh10 (myosin, heavy polypeptide 10, non-muscle)", "reagent": 1, "Tnf reporter robust z-score": -1.2, "fewer than 50 cells in well": "enough cells in well", "Outcome": "inactive"}
{"gene": "Cysrt1 (cysteine rich tail 1)", "reagent": 1, "fewer than 50 cells in well": "fewer than 50 cells per well; well left out of calls", "Outcome": "inactive"}
{"gene": "Osr2 (odd-skipped related 2)", "reagent": 1, "Tnf reporter robust z-score": 1.33, "fewer than 50 cells in well": "enough cells in well", "Outcome": "inactive"}
{"gene": "Zmym6 (zinc finger, MYM-type 6)", "reagent": 1, "Tnf reporter robust z-score": -0.3, "fewer than 50 cells in well": "enough cells in well", "Outcome": "inactive"}
{"gene": "Mapkap1 (mitogen-activated protein kinase associated protein 1)", "reagent": 1, "Tnf reporter robust z-score": -0.34, "fewer than 50 cells in well": "enough cells in well", "Outcome": "inactive"}
{"gene": "Mapkap1 (mitogen-activated protein kinase associated protein 1)", "reagent": 2, "Tnf reporter robust z-score": -0.98, "fewer than 50 cells in well": "enough cells in well", "Outcome": "inactive"}
{"gene": "Aldh1l1 (aldehyde dehydrogenase 1 family, member L1)", "reagent": 1, "Tnf reporter robust z-score": 0.06, "fewer than 50 cells in well": "enough cells in well", "Outcome": "inactive"}
{"gene": "Mal2 (mal, T cell differentiation protein 2)", "reagent": 1, "Tnf reporter robust z-score": 0.03, "fewer than 50 cells in well": "enough cells in well", "Outcome": "inactive"}
{"gene": "Npm1 (nucleophosmin 1)", "reagent": 1, "Tnf reporter robust z-score": -0.97, "fewer than 50 cells in well": "enough cells in well", "Outcome": "inactive"}
{"gene": "Setd1b (SET domain containing 1B)", "reagent": 1, "Tnf reporter robust z-score": -0.41, "fewer than 50 cells in well": "enough cells in well", "Outcome": "inactive"}
{"gene": "Myl10 (myosin, light chain 10, regulatory)", "reagent": 1, "Tnf reporter robust z-score": -1.25, "fewer than 50 cells in well": "enough cells in well", "Outcome": "inactive"}

Copied from the list:
Aldh1l1 (aldehyde dehydrogenase 1 family, member L1), Tnf reporter robust z-score → 0.06
Entry of Atf7ip2 (activating transcription factor 7 interacting protein 2) #1 under “Outcome”: inactive
Setd1b (SET domain containing 1B), Outcome = inactive
